Source: the supplement of paper PMC8728848
This is one part of the list.

Experiments:
Experiment in all cases: glycan array binding signal (z-score within array); higher = stronger binding
Conditions in all cases: glycan notation: IUPAC condensed, linker removed
[1] = molecular target: Fuc(a1-2)Gal(b1-4)GlcNAc(b1-3)Gal(b1-4)GlcNAc(b1-3)Gal(b1-4)GlcNAc
Outline: (§1)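 Glycan array binding is given as a within-array Z-score, which can be read as non-binding when negative. The arrays, 3228 of them, came from the Consortium for Functional Glycomics database and were retained only where the protein sequence was available. Z-scores were averaged across arrays of the same protein sequence at different concentrations or buffers and across linkers.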

[2] = molecular target: Fuc(a1-2)Gal(b1-4)GlcNAc(b1-3)GalNAc
Outline: as §1

[3] = molecular target: Fuc(a1-2)Gal(b1-4)GlcNAc(b1-3)[Fuc(a1-2)Gal(b1-4)GlcNAc(b1-6)]GalNAc
Outline: as §1

[4] = molecular target: Fuc(a1-2)Gal(b1-4)GlcNAc(b1-3)[Fuc(a1-3)[Gal(b1-4)]GlcNAc(b1-6)]Gal(b1-4)Glc
Outline: as §1

[5] = molecular target: Fuc(a1-2)Gal(b1-4)GlcNAc(b1-6)GalNAc
Outline: as §1

[6] = molecular target: Fuc(a1-2)Gal(b1-4)GlcNAc6S
Outline: as §1

[7] = molecular target: Fuc(a1-2)Gal(b1-4)[Fuc(a1-3)]GlcNAc
Outline: as §1

[8] = molecular target: Fuc(a1-2)Gal(b1-4)[Fuc(a1-3)]GlcNAc(b1-2)Man(a1-3)[Fuc(a1-2)Gal(b1-4)[Fuc(a1-3)]GlcNAc(b1-2)Man(a1-6)]Man(b1-4)GlcNAc(b1-4)[Fuc(a1-6)]GlcNAc
Outline: as §1

[9] = molecular target: Fuc(a1-2)Gal(b1-4)[Fuc(a1-3)]GlcNAc(b1-2)[Fuc(a1-2)Gal(b1-4)[Fuc(a1-3)]GlcNAc(b1-4)]Man(a1-3)[Fuc(a1-2)Gal(b1-4)[Fuc(a1-3)]GlcNAc(b1-2)Man(a1-6)]Man(b1-4)GlcNAc(b1-4)GlcNAc
Outline: as §1

[10] = molecular target: Fuc(a1-2)Gal(b1-4)[Fuc(a1-3)]GlcNAc(b1-3)Gal(b1-4)[Fuc(a1-3)]GlcNAc
Outline: as §1

[11] = molecular target: Fuc(a1-2)Gal(b1-4)[Fuc(a1-3)]GlcNAc(b1-3)Gal(b1-4)[Fuc(a1-3)]GlcNAc(b1-3)Gal(b1-4)[Fuc(a1-3)]GlcNAc
Outline: as §1

[12] = molecular target: Fuc(a1-2)Gal(b1-4)[Fuc(a1-3)]GlcNAc(b1-3)GalNAc
Outline: as §1

[13] = molecular target: Fuc(a1-2)Gal(b1-4)[Fuc(a1-3)]GlcNAc(b1-3)[Neu5Ac(a2-6)Gal(b1-4)GlcNAc(b1-6)]Gal(b1-4)Glc
Outline: as §1

[14] = molecular target: Fuc(a1-2)Gal3S(b1-4)GlcNAc
Outline: as §1

[15] = molecular target: Fuc(a1-2)Gal6S(b1-3)GlcNAc
Outline: as §1

[16] = molecular target: Fuc(a1-2)Gal6S(b1-3)GlcNAc6S
Outline: as §1

Fuc(a1-2)Gal6S(b1-4)Glc = molecular target: Fuc(a1-2)Gal6S(b1-4)Glc
Outline: as §1

[17] = molecular target: Fuc(a1-2)Gal6S(b1-4)Glc6S
Outline: as §1

Fuc(a1-2)[Gal(a1-3)]Gal = molecular target: Fuc(a1-2)[Gal(a1-3)]Gal
Outline: as §1

[18] = molecular target: Fuc(a1-2)[Gal(a1-3)]Gal(b1-3)GalNAc
Outline: as §1

[19] = molecular target: Fuc(a1-2)[Gal(a1-3)]Gal(b1-3)GalNAc(b1-3)Gal(a1-4)Gal(b1-4)Glc
Outline: as §1

[20] = molecular target: Fuc(a1-2)[Gal(a1-3)]Gal(b1-3)GlcNAc
Outline: as §1

[21] = molecular target: Fuc(a1-2)[Gal(a1-3)]Gal(b1-3)GlcNAc(b1-2)Man(a1-3)[Fuc(a1-2)[Gal(a1-3)]Gal(b1-3)GlcNAc(b1-2)Man(a1-6)]Man(b1-4)GlcNAc(b1-4)GlcNAc
Outline: as §1

[22] = molecular target: Fuc(a1-2)[Gal(a1-3)]Gal(b1-3)GlcNAc(b1-2)Man(a1-3)[Fuc(a1-2)[Gal(a1-3)]Gal(b1-3)GlcNAc(b1-2)Man(a1-6)]Man(b1-4)GlcNAc(b1-4)[Fuc(a1-6)]GlcNAc
Outline: as §1

[23] = molecular target: Fuc(a1-2)[Gal(a1-3)]Gal(b1-3)GlcNAc(b1-3)GalNAc
Outline: as §1

[24] = molecular target: Fuc(a1-2)[Gal(a1-3)]Gal(b1-3)GlcNAc(b1-6)GalNAc
Outline: as §1

[25] = molecular target: Fuc(a1-2)[Gal(a1-3)]Gal(b1-4)Glc
Outline: as §1

[26] = molecular target: Fuc(a1-2)[Gal(a1-3)]Gal(b1-4)GlcNAc
Outline: as §1

[27] = molecular target: Fuc(a1-2)[Gal(a1-3)]Gal(b1-4)GlcNAc(b1-2)Man
Outline: as §1

[28] = molecular target: Fuc(a1-2)[Gal(a1-3)]Gal(b1-4)GlcNAc(b1-2)Man(a1-3)[Fuc(a1-2)[Gal(a1-3)]Gal(b1-4)GlcNAc(b1-2)Man(a1-6)]Man(b1-4)GlcNAc(b1-4)GlcNAc
Outline: as §1

B1: Thrombomodulin Extracellular (Mus musculus), P15306 (protein)
chain: MLGIFFLGVLAPASLGLSALAKLQPTGSQCVEHECFALFQGPATFLDASQACQRLQGHLMTVRSSVAADVISLLLSQSSMDLGPWIGLQLPQGCDDPVHLGPLRGFQWVTGDNHTSYSRWARPNDQTAPLCGPLCVTVSTATEAAPGEPAWEEKPCETETQGFLCEFYFTASCRPLTVNTRDPEAAHISSTYNTPFGVSGADFQTLPVGSSAAVEPLGLELVCRAPPGTSEGHWAWEATGAWNCSVENGGCEYLCNRSTNEPRCLCPRDMDLQADGRSCARPVVQSCNELCEHFCVSNAEVPGSYSCMCETGYQLAADGHRCEDVDDCKQGPNPCPQLCVNTKGGFECFCYDGYELVDGECVELLDPCFGSNCEFQCQPVSPTDYRCICAPGFAPKPDEPHKCEMFCNETSCPADCDPNSPTVCECPEGFILDEGSVCTDIDECSQGECFTSECRNFPGSYECICGPDTALAGQISKDCDPIPVREDTKEEEGSGEPPVSPTPGSPTGPPSARPVHSGVLIGISIASLSLVVALLALLCHLRKKQGAARAELEYKCASSAKEVVLQHVRTDRTLQKF
[1]
  glycan array binding signal (z-score): 1.35
[2]
  glycan array binding signal (z-score): -0.122
[3]
  glycan array binding signal (z-score): -0.15
[4]
  glycan array binding signal (z-score): -0.041
[5]
  glycan array binding signal (z-score): 0.42
[6]
  glycan array binding signal (z-score): -0.316
[7]
  glycan array binding signal (z-score): -0.221
[8]
  glycan array binding signal (z-score): 0.306
[9]
  glycan array binding signal (z-score): 0.263
[10]
  glycan array binding signal (z-score): 0.048
[11]
  glycan array binding signal (z-score): -0.583
[12]
  glycan array binding signal (z-score): -1.31
[13]
  glycan array binding signal (z-score): -0.768
[14]
  glycan array binding signal (z-score): 0.293
[15]
  glycan array binding signal (z-score): -0.762
[16]
  glycan array binding signal (z-score): 0.426
Fuc(a1-2)Gal6S(b1-4)Glc
  glycan array binding signal (z-score): -0.087
[17]
  glycan array binding signal (z-score): -1.94
Fuc(a1-2)[Gal(a1-3)]Gal
  glycan array binding signal (z-score): -1.03
[18]
  glycan array binding signal (z-score): 0.064
[19]
  glycan array binding signal (z-score): 1.38
[20]
  glycan array binding signal (z-score): -0.769
[21]
  glycan array binding signal (z-score): 1.45
[22]
  glycan array binding signal (z-score): -0.667
[23]
  glycan array binding signal (z-score): 2.8
[24]
  glycan array binding signal (z-score): 0.083
[25]
  glycan array binding signal (z-score): 0.397
[26]
  glycan array binding signal (z-score): 0.952
[27]
  glycan array binding signal (z-score): 1.75
[28]
  glycan array binding signal (z-score): -0.282
